Experimental data as given in paper PMC10451623 (Antioxidants, 2023).
These are yes or no findings as the source states them, for the method shown. Some results given as binding are weak or reduced against the parent protein; the word gives no strength. Sequences can lack the tags named with a protein.

Assays:
[1] = target: T1, Human PPARδ-LBD (amino acids 170–441), amino-terminal His-tagged (human) (UniProt Q03181); assay: FRET or BRET; LANCE Ultra TR-FRET as a1 (same proteins, peptides and buffers); ligand: saroglitazar, concentration series; response as % of the maximal response with the reference agonist; both purified
T1 sequence: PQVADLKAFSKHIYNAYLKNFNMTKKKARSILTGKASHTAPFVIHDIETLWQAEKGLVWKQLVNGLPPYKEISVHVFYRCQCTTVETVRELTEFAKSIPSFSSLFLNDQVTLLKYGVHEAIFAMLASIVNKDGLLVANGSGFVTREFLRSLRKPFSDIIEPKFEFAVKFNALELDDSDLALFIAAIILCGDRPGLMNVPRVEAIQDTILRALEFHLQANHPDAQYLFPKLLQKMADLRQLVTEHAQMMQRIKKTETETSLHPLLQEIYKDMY

[2] = target: T1, Human PPARδ-LBD (amino acids 170–441), amino-terminal His-tagged (human); assay: FRET or BRET; LANCE Ultra TR-FRET as a1 (same proteins, peptides and buffers); ligand: pioglitazone, concentration series; response as % of the maximal response with the reference agonist; both purified
[3] = target: T2, Human PPARα-LBD (amino acids 200–468), amino-terminal His-tagged (human) (UniProt Q07869); assay: as above
T2 sequence: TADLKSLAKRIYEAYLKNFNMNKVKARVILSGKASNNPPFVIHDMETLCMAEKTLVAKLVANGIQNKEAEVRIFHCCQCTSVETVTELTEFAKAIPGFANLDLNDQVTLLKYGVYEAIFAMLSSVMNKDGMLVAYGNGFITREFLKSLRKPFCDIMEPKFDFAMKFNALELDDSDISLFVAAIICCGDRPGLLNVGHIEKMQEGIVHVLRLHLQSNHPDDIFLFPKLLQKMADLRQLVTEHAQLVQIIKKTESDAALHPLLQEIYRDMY

CPSSHSSLTERHKILHRLLQEGSPS (biotin on the N-terminus (biotin-[residues removed])) [biotin-labeled steroid receptor coactivator 1 (SRC1) peptide (amino acids 676–700)]
binding [1]: no binding (condition: with saroglitazar as the ligand) | binding [2]: no binding (condition: with pioglitazone as the ligand) | binding [3]: binds weakly
